Record: PubChem BioAssay AID652259 (Drosophila RNAi Screening Center, 2013)
Screen: 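Identify new Wingless signalling regulators in fly cells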 (primary screen). Cells: Drosophila clone 8 imaginal disc epithelial cells. Reagents: long dsRNA against Drosophila genes. Challenge: pathway stimulated by co-transfected Wingless expression plasmid. Measurement: 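Dual luciferase reads per well after Wingless plasmid stimulation: reporter firefly light and Renilla control light; activity is firefly divided by Renilla, a ratio not deposited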. Direction: firefly reporter light: higher = more Wg reporter light, before normalisation; Renilla control light: higher = more transfected or surviving cells. Rule for the call: 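a knock-down is a candidate when at least two out of four statistical tests show it departing from its plate mean; one test alone signals a weak candidate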. Meaning of the calls: active = candidate regulator (raises or lowers reporter); inactive = not a candidate.
The screen tested about 22,000 reagents; below is a random part of those that have a named target and a result. Over the whole deposit, 233 (1.1%) were called active. 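Light values are raw, unnormalised plate reads; the ratio scores behind the reporter calls were not deposited.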 Unmarked entries are inactive. A plus sign joins genes that one reagent is predicted to hit. The record does not give: the amount of reagent, the time to read-out, the dose of the treatment.

| Gene | dsRNA | reporter change call, replicate 1 | firefly reporter light, replicate 1 | firefly reporter light, replicate 2 | Renilla control light, replicate 1 | Renilla control light, replicate 2 |
| --- | --- | --- | --- | --- | --- | --- |
| CR32821 + CR43381 + CR43377 + 1 more | DRSC22544 | – | 6.02e5 | 6.19e5 | 2.18e5 | 1.53e5 |
| ebd1 (earthbound 1) | DRSC08565 | – | 13793 | – | 5194 | – |
| HSPBAP1 (HSPB1 associated protein 1) | DRSC14567 | – | 6504 | – | 2391 | – |
| CG3065 | DRSC04333 | – | 6652 | – | 1802 | – |
| Letm1 | DRSC04476 | – | 6887 | – | 1597 | – |
| TotX (Turandot X) | DRSC22206 | – | 6.88e5 | 7.02e5 | 3.22e5 | 3.28e5 |
| CG30384 | DRSC06032 | – | 2402 | 6115 | 660 | 2929 |
| CG15483 | DRSC02493 | – | 1784 | 6315 | 1141 | 3574 |
| stol (stolid) | DRSC01956 | – | 1973 | 4122 | 720 | 1960 |
| CG13545 | DRSC04187 | – | 4017 | 10835 | 979 | 3236 |
| CG8128 | DRSC20084 | – | 2661 | 6304 | 1288 | 3142 |
| CG6695 | DRSC16098 | – | 1684 | 4792 | 1338 | 1847 |
| RpL8 (Ribosomal protein L8) | DRSC08532 | – | 5236 | – | 1504 | – |
| RpL8 (Ribosomal protein L8) | DRSC08695 | – | 5360 | – | 1645 | – |
| Pp2A-29B (Protein phosphatase 2A at 29B) | DRSC03400 | – | 3348 | 10406 | 1325 | 4348 |
| Gr58c (Gustatory receptor 58c) | DRSC04136 | – | 1548 | 5892 | 597 | 2026 |
| Hsc70-1 (Heat shock protein 70 cognate 1) | DRSC11185 | – | 5346 | – | 1652 | – |
| CG16743 | DRSC02514 | – | 2653 | 8689 | 765 | 2561 |
| CG4554 | DRSC04473 | – | 4539 | 8.22e5 | 1272 | 4.33e5 |
| CG14205 | DRSC19560 | – | 21877 | – | 9641 | – |
| MstProx + Mst84Da | DRSC12597 | – | 14579 | – | 4121 | – |
| DptB (Diptericin B) | DRSC06001 | – | 13160 | – | 3293 | – |
| CG31496 | DRSC12547 | – | 4416 | – | 2009 | – |
| CG33177 | DRSC19949 | – | 27355 | – | 10155 | – |
| Cbp80 (cap binding protein 80) | DRSC18450 | – | 2678 | 8531 | 1154 | 1720 |
| CG10479 | DRSC09733 | – | 6377 | – | 2643 | – |
| S (Star) | DRSC00785 | – | 2530 | 5057 | 811 | 1388 |
| Spn43Ad (Serpin 43Ad) | DRSC06770 | – | 1584 | 5373 | 420 | 2465 |
| LeuRS (Leucyl-tRNA synthetase) | DRSC00581 | – | 3444 | 10277 | 1330 | 3341 |
| saturn | DRSC09303 | – | 4088 | – | 1523 | – |
| Hat1 (Histone acetyltransferase 1) | DRSC12298 | – | 17761 | – | 4400 | – |
| CG31253 + CG31131 | DRSC13839 | – | 4485 | – | 1879 | – |
| CG13144 | DRSC02241 | – | 2668 | 5522 | 672 | 2934 |
| Ccp84Ae | DRSC12590 | – | 20427 | – | 5205 | – |
| Pus10 (Pseudouridine synthase 10) | DRSC00629 | – | 4909 | – | 1889 | – |
| CG8343 | DRSC04905 | – | 11840 | – | 3457 | – |
| mRpS6 (mitochondrial ribosomal protein S6) | DRSC08470 | – | 2535 | 4710 | 1506 | 2520 |
| Sply (Sphingosine-1-phosphate lyase) | DRSC07299 | – | 4592 | – | 1277 | – |
| Nup153 (Nucleoporin 153kD) | DRSC19904 | – | 1306 | 4257 | 630 | 587 |
| TotA (Turandot A) | DRSC13448 | – | 2816 | – | 1520 | – |
| Gdap2 | DRSC06789 | – | 3104 | 10247 | 1094 | 3577 |
| Gdap2 | DRSC06790 | – | 3072 | 8825 | 700 | 3523 |
| Grip (Glutamate receptor interacting protein) | DRSC17940 | – | 32048 | – | 2752 | – |
| Grip (Glutamate receptor interacting protein) | DRSC18395 | – | 23712 | – | 8388 | – |
| scrt (scratch) | DRSC08736 | – | 4204 | – | 739 | – |
| CG2841 | DRSC17699 | – | 3857 | – | 1424 | – |
| CG2841 | DRSC18824 | – | 12035 | – | 11346 | – |
| CG2841 | DRSC22106 | – | 7.33e5 | 8.08e5 | 3.27e5 | 3.23e5 |
| CG31533 | DRSC13018 | – | 3900 | – | 1014 | – |
| CG15124 | DRSC06546 | – | 5412 | – | 1937 | – |
| CG12325 | DRSC06130 | – | 12313 | – | 3216 | – |
| CG11858 | DRSC14412 | – | 18380 | 6.93e5 | 20064 | 3.06e5 |
| T3dh + pgc | DRSC04659 | – | 9376 | – | 2669 | – |
| Pgls (6-phosphogluconolactonase) | DRSC19769 | – | 17289 | – | 8301 | – |
| Cyt-c-p (Cytochrome c proximal) | DRSC03310 | – | 2203 | 8116 | 1356 | 3168 |
| CG7903 | DRSC16338 | – | 6315 | – | 3075 | – |
| Mer (Merlin) | DRSC20259 | – | 3168 | 9520 | 889 | 2312 |
| ND1 (retired record) | DRSC21273 | – | 17114 | – | 11285 | – |
| Eb1 | DRSC05016 | – | 3364 | 7777 | 563 | 2338 |
| toy (twin of eyeless) | DRSC17222 | – | 2857 | 5040 | 1100 | 2146 |
| Kdm5 (Lysine demethylase 5) | DRSC03133 | – | 4517 | – | 2317 | – |
| Meics (Meiotic central spindle) | DRSC11413 | Wg reporter activity lowered (active) | 2172 | – | 1837 | – |
| CG13295 | DRSC09969 | – | 1504 | 8885 | 1267 | 4288 |
| CG18599 | DRSC15357 | – | 19319 | 6.70e5 | 4961 | 3.42e5 |
| CG18599 | DRSC22585 | – | 5.53e5 | 4.96e5 | 54717 | 24826 |
| CG14868 | DRSC14991 | – | 2953 | – | 1220 | – |
| Obp28a (Odorant-binding protein 28a) | DRSC03394 | – | 1954 | 6297 | 372 | 3267 |
| CG4679 | DRSC06880 | – | 5264 | – | 1828 | – |
| CG17778 | DRSC18504 | – | 23747 | – | 9940 | – |
| CG7201 | DRSC10786 | – | 2150 | 5696 | 1228 | 3025 |
| CG14864 | DRSC14987 | – | 19170 | – | 4170 | – |
| CG32988 | DRSC02692 | Wg reporter activity lowered | 2192 | 4024 | 1457 | 2201 |
| ath (athos) | DRSC02788 | – | 2185 | 3894 | 1209 | 2025 |
| Pop4 (POP4 ribonuclease P/MRP subunit) | DRSC10955 | – | 1451 | 6505 | 1061 | 2473 |
| CG34129 | DRSC15960 | – | 20466 | – | 21974 | – |
| Upf3 | DRSC04092 | – | 7586 | – | 3024 | – |
| IntS14 (Integrator 14) | DRSC00668 | – | 12011 | – | 5312 | – |
| Sf3a2 (Splicing factor 3a subunit 2) | DRSC09801 | – | 7270 | – | 1176 | – |
| mthl3 (methuselah-like 3) | DRSC06997 | – | 14756 | – | 4791 | – |
| CarT (Carcinine transporter) | DRSC03196 | – | 10904 | – | 2836 | – |
| CG11037 | DRSC11631 | – | 17444 | – | 6678 | – |
| Vsx1 (Visual system homeobox 1) | DRSC18349 | Wg reporter activity raised (active) | 27092 | – | 12736 | – |
| Vsx1 (Visual system homeobox 1) | DRSC18350 | – | 38661 | – | 5889 | – |
| Ir48b (Ionotropic receptor 48b) | DRSC06320 | – | 6641 | – | 2317 | – |
| cdi (center divider) | DRSC16922 | – | 2354 | 7495 | 736 | 2389 |
| CG7251 | DRSC03039 | – | 6876 | – | 2860 | – |
| ArgRS (Arginyl-tRNA synthetase) | DRSC20138 | – | 15937 | – | 10018 | – |
| tho2 | DRSC00646 | – | 10183 | – | 2976 | – |
| Inx2 (Innexin 2) | DRSC18783 | – | 2763 | 7570 | 1042 | 2365 |
| CG42749 | DRSC18091 | – | 24297 | – | 11099 | – |
| CG42749 | DRSC18092 | – | 13692 | – | 6997 | – |
| Gale (UDP-galactose 4'-epimerase) | DRSC08234 | – | 15702 | – | 5259 | – |
| Tbc1d22 (TBC1 domain family member 22) | DRSC15867 | – | 2221 | 4716 | 1089 | 1526 |

Hits, of those listed so far:
| Gene | dsRNA | reporter change call, replicate 1 | firefly reporter light, replicate 1 | firefly reporter light, replicate 2 | Renilla control light, replicate 1 | Renilla control light, replicate 2 |
| --- | --- | --- | --- | --- | --- | --- |
| Meics (Meiotic central spindle) | DRSC11413 | Wg reporter activity lowered (active) | 2172 | – | 1837 | – |
| Vsx1 (Visual system homeobox 1) | DRSC18349 | Wg reporter activity raised (active) | 27092 | – | 12736 | – |
